These are yes or no findings as the source states them, for the method shown. Binding seen in cells or lysates may run through a third protein. Here binding means that the protein was enriched with, or labelled near, the bait; the list need not be complete.
T1: Cdc10-mCherry (C. neoformans) (UniProt J9VMT9)
T1 sequence: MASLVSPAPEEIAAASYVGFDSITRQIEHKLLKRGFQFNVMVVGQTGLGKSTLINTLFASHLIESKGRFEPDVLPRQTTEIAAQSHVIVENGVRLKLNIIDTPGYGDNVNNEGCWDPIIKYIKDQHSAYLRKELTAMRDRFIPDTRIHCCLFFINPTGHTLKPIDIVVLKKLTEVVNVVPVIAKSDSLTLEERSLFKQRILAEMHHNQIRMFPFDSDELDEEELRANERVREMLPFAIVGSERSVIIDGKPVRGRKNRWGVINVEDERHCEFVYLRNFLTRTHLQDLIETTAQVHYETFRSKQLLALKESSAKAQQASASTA

T2: Cdc3-mCherry (C. neoformans) (UniProt J9VUF2)
T2 sequence: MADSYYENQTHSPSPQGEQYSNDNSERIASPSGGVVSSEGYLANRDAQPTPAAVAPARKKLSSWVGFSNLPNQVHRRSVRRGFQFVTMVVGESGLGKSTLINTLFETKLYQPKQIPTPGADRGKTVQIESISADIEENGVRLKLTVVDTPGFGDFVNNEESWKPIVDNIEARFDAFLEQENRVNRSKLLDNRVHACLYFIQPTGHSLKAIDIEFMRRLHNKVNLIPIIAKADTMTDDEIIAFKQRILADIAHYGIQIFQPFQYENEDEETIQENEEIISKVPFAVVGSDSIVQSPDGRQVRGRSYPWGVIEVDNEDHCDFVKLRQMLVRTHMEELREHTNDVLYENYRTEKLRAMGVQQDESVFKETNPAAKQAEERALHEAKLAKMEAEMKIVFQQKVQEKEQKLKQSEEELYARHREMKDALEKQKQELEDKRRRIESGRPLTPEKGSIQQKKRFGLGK


Assays:
[1] = biological target: T1, Cdc10-mCherry (C. neoformans); assay: affinity purification with mass spectrometry; mCherry-tagged septin captured from C. neoformans lysate on RFP-Trap agarose, 4 h at 4°C, washed with TBS with 2 M urea pH 7.5; GeLC-MS/MS; untagged H99 as negative control; hits logFC >2 and adjusted p <0.001 (text-named hits <0.05); exponential cultures at ~25°C or shifted to 37°C for 2 h; N = 5
[2] = biological target: T2, Cdc3-mCherry (C. neoformans); assay: as above

| binding [1] | binding [2] | Binder |
| --- | --- | --- |
| binds | binds | Glutathione S-transferase (protein, UniProt J9W1V7 1-330) MPTSANRIHNNADEKGNFNRQVSSFRDAIQPGGQFPPEKGRYHLYVAFGCPWAHRSLIVRRLKGLEDFIDISIVHPHLHEGGWHFVTPEAAAHPAPVSEHPDTSFPGATQDHLFGFSHLSKIYYKANPDYNARFTVPVVWDKITGTIVNNESSEVIRFFNSAFNELLPEGKGKDLDLYPEELRGEIDELNEWVYHDINNGVYKTGFATTQEAYEKAVIPLGKALERINERLSDGREFLVGGRLTEADVRLYTTIVRYDPVYHSHFKCNTGLIRHDYPHINRWLKNLYWNYPAFKDTTNFDHIKDGYWYSQINLNPTRIVPIGPKHNVEPL |
| binds | binds | V-type proton ATPase subunit F (protein, UniProt J9VRI8 1-121) MASNTPNPKDRNLIAVIGDEDSVTGLLLAGIGHINQHQKKNFLIVDGKTQTSVIESAFQDFTERKDVAILLINQHIAERIRPTVDRYQAAFPALLEIPSKEHPYDPAKDSVLKRVQKLRGD |
| binds | binds | Symplekin (protein, UniProt J9VRR8 1-1054) MSLYADDDPTKALQLTDEQPTLQPPTDPQQALNAALALDSESPEQQEGLQNAALRFEEHPERLPEVIPRLLGLITEGGDSLLRFWTLDMIALTVGRSGLMLDVKLHVAQYCLTALNKLLHSNSVPTIKAVIPILSTIYPILFRLLATSRPSQQVLDLFNVVKSKIISFALDPNARPFNVGIKAVAWKFVQRVLLAATKAAGSDPRLPQRGAGSNDVNVSHIVPNGCLSASDIEKEGTVLQTQLVTHLYSSSDPAILHPLINTLPAIAKMRPTLAPLVVHSLASWTPSALVAAGRSAMEIRAVDKTVRIAISHLLRHPPLSAHAAQLNDALVRQKARMEAAFLGEASARKERRQNLKHTIDPEAAFEAESSEQAAKRARLDGLVGVGSGMGKGPEIDVSGMRLEEVVEVVLSSLRGVSLELLTGTIESAKRALQENSTDAQPLLAAALGISSVVKEEEEEEILNPLDMEDDDDDLLMDGPEPLMEEEEPTSFTDFVLPAPEPLESSDKEFIFSDTIERIWQTGADLAGLPDPKDSDATKLAVKPKEMWMLLLARLATRGADVKRKVICDFVIADFANRSKFASVWLNEEWYNEKIGISSPGQYLSNLEAIVTAYLPKVDSKDKSLSTFILTLPAIPPSLISTLETICQEPERALVGFLALRDIVEVRPPVRPQALQTLLELCTHPDRKIRVMAIITTVRRWGNDSPMMPFLTRYALGVLWRLANNDVKNEDVDMEEGEQADEKIQSKFLGEPSADNVQQHVELAFALAKRKQDLLDDIFRLYPRLEPAVQDVVEAQLMPLIQSLGATEKLLEILRKFPNGADKLVMRVVGVLSAEGSKTLVTLMKTLLSERDLDPRFVIPIVGDLDKTEIEKQLPRIVSLLGDVDSKDMVKTAFASMLQKMTPSDLMVALHQEGAPLKLTIEAIGICFSMTTVFRSDVLANAMSRIADLPTIPLIFVRTIIQVVTTYKSLAPFIANHILPKLVTKKIWEIPQLWDGFIMLAKRIAPASFGALLQLPKEQLKEVVEKQPGLKSGLKGFLANKPGSKAAMAEIFGDD |
| binds | binds | Pre-mRNA cleavage complex 2 protein Pcf11 (protein, UniProt J9VKW5 1-611) MAYPAYPAYQQAPYYPPPPVQPTTDVFRRQYADRLRALTFNSRPIIQDLSMLAMAARDRNDWNGMQAVVEEIELAVLRALPQQKLPLLYLLDSISKNVGPPYTTRLLQAIVPRLYIKTYREVDGVTKTKMEEMIGLWRTGGPGGSELYGSHVREQVERELFGSAGIQNFKAPNRQQVQVLLNAALDNKRREVAMRPGDVVLGRQLNALLGIGELLSTTNVQPQELSMIVEQLKSMAPPSVAPTPTQASVTPSWGPTPSVNDSTPSNLPPFPPKLPAVNGNGYTNAALPPFPSNIPTPLETISTAPMTSSQTPISGNQRSSTPAMAPASLAPVPSIVPSVPSLPVDVARILQTLNKSGIGSQPQTPDVERGTPGPNMVATTEAYEDMILRLDIKLQSIDLNAHHKLSFAHLSHRCQQCGMRFPSANAAFDAHMDWHFRRNKKERESGGRGAHRRWLPRVEQWVSDAITLPSTAASSSQTEKATVSAERLAQLRQKWVKVPQDSKKAASVCPVCKEAFRAEWSDSEEEWIWKNALAINGVFYHATCRAEQTSALKRLKAADPNRRTSSSASPRTTPSNEGLKPEAQKRKVEGMDVEHEEGSKRVKVEDIVDDI |
| binds | binds | DASH complex subunit Duo1 (protein, UniProt J9VJS2 1-431) MDSPLLPTLSRSNYSVDEGNNGDASLSLADLSIASDGPDGLSPLPPPRQLSQHGQSQIKSLYAQGSGYIGASGGAGTESSVMLGSTSTRENIPPTAISNDLKGGAGTSAAGKPRFSLFAPSRQAYEDDDRQSVMEEEDDKRTSAIEDRDDVTISNEGYGREEGGDTEGEEEDEERVRPQEHSRQRDSDGETKLRESLYELRKFNEVFEGFIGSLEGVKGHNERLAERVQQTSLLLDEYTAILGQAEHTQRLLLNPRWTGSSDDAAAITAEEQARAAAAAKALEEAQAAAEAARAAEEQARKSAERERAQGEVRTRGAGTRGRGTIRGSGLSRGSRLARGGSGSVRGGSGLARGGGLARGGSELVRGGSELVRGGSGLIRGRGAGTVVTKSSVAPPRPESATTSSATRRGGSTGTAGRYSHVKSSGYGPRQT |
| binds | binds | Malate synthase (protein, UniProt J9W232 1-538) MSLPQGIYLTAPIPKGGEHILSTEALEFLAVLHRTFNKRRLELLKNREKVQAELDQGKPLSFLPETREIRENLAWSCAPPGPGLEDRRVEITGPTDRKMVVNALNSGAKTFMADFEDSNSPTWSNMVLGQVNLYDAIRRQIDFEINGKAYKLSEKPAVLLVRPRGWHLPEPRLIIDGTPMSGSLFDFGLYFFHNARELISRGSGPYFYLPKMEHHLEARLWNDAFCLATSHLGVQQGVIRATVLIETLPAAFQMEEILYELKEHSAGLNCGRWDYIFSFIKKQRAHKNCVFPDRSDVTMTVPFMDAYVRLLIQTCHKRKVAAMGGMSAQIPIKNDPAANERAMSKVRADKLREVTAGHDGTWVAHPALISIALEIFNQHMPGPNQYHIRREDVTVTDKQIADPSVPGKITEQGLRDNVSAALSYCAAWISGNGCVPINHLMEDAATAEIARVQLWQWCKYGSKTDSGKDINPSYVQTILSEEASKVSKLPGIDPSHVKIASEYMAQQVKAEWPSDFLTSDLLGHLEGVGTKGGAKASL |
| binds | binds | Profilin (protein, UniProt J9VJD3 1-127) MSWQAYVDDHLVATGKVKKAAILGKQGGVWAASPGYNLSQQEQNAITQTYFQQPDSVRANGITLNGFKFMCIQATPEEVIGRKGERGVFVIPTNQAILVAEYDAPTSAGEANVVVAKLADWLKSASY |
| binds | binds | eIF-2B GDP-GTP exchange factor subunit alpha (protein, UniProt J9W1B2 1-388) MQSVASPQEYSDTPNQSSTSARTPSPRAFDVVTAYRRALEDDKVPHPIAAILALVELMEASTASTVTGLASELTVGRQVLINTQASLGVRAGCQLWERFFALFPGVGEDFPAYKRSLISQGRSFCAITAPQCREKIAELAVGFLRDDCVILTHSYSRTVIQTILRAHKQHKRIRVYVTEARPGCLGMKTHQFLTANGIPCTVVLDSAVAYVMERVDMVLVGSEAVVESGGLVSSVGTYQVALVAKVMQKPFYALAESYKFLRHYPLSQTDLPIPASSDRPSIPLEFPSTIPDTQSIPGFLSRGSSLTPQSRSPQAPATPPHAVIGGGGGGGADGGKRYERMEMTKEMEEINPMVDVTTPDLIDFIITDLGAPLSPTSVSQYLVAQFSS |
| binds | binds | E3 ubiquitin-protein ligase PEP5 (protein, UniProt J9W0X0 1-1071) MALSPSHAGQPAPQWRQFTFFDVENVKDEQDLAQSPRAIRQLTPPVAVTTTAPKSPLSPSLIVSSSRNISILDKHFSVERSFTAWEQNGRATFLLEAGGLLVAIGEEEGSLWPLLKVWDLTKEDKKSSERRPVLLRSVRIQHGQRPHPVSSVALTSNLSHLAIGLGDGTVLLYRHFLQSLTTSSYLTSLPKARVVHESHEPVTGLGFREHPPTDKSTPSRSSSSHGFSLFIVTTNRVLSAPVNGKGEARTIDDVGCALGCATMDSQRKEMVVARDEAIYLYGPDGRGACLAYEGPKSSITVYSHNLIITSPPFYPSVASASATVRHYAKSTPNGELGSPDTAKITIFDLDNKVIGYSGTYNEGVRDVFCQWGGIYVYGGNGKLCRLDEQSTQAKLETLYRRNLYTLAITMARSQGLGEAGIADIHRRYGDYLYSKGDFDGAMGQFVKTLGSLQPSYVIRKFLDAQRIHNLTTYLQELHSRGLANPDHTTLLLNCYTKTSDRARLDQFIRTEARRSSSPAPGTGAVGREGELPFDLDTAIRVCRQAGFYEHAAYLAKKFDKHEDYLRIQIEDAGKVDEALRYLRGLGPKACEVNMARYGRTLLQHEPEATTELLIDLCSGNLGRKKAVREVDGKTDGITSGSGVNGSGPAMLSYLGYNKVTGFLSGDTPSGATVSEDEKPTGAHDGLDAAKVGEDEKEDVTPSYIPASPRQYFAHFVDHRELFIHFLESVALNLWNQKIDPSFSNSSAVSAPKRDMDSPPPTDPTIIDQTAVWNTLIELYLSSSAEESKRKALALINSDSTPYDPMHALVLCSSVGFTEGMLRLWEGMGMYEDVLRYYMEEGQEAEDAQGITPSNKVFTHLEMYGPSHPHLYPLVLRYLTSSPAILTRHKGELSKILAKIDEYQIMPPLGVVQLLSRNGVVDVGSVKEWLRGKVEENEEEIESDKHLYDSYRSETAAKRKAILDRSNVSQPEIFQVTKCAACGGQLDLPSVHFMCKHSYHQRCLPDSDPECPICARQHSVIRELRRNQLRLADRHDLFLEEVHQAEDGFNVVADAFGRGLFRREEVDERIEA |

Reference: article PMC11651612
